Source: PubChem BioAssay AID1259327 (Drosophila RNAi Screening Center, 2017)
The deposit covers about 3,100 reagents; this is an unselected part. 378 of all reagents (12%) were called active. 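Hits include both directions; z-score sign shows ATP rise or fall; raw luminescence values are not plate-normalised.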 Unmarked entries are inactive. Reagents against one gene are numbered here. Names joined by + are all predicted targets of the reagent. The record does not give: the amount of reagent.

Test: 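Baseline ATP after transmembrane-protein gene knock-down with water vehicle only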
System: Drosophila S2R+ cells
Knock-down reagent: long dsRNA against Drosophila genes
Timing: 5 days (water added on day 4, read one day later)
Treatment: water added as vehicle, no metal, one day before read-out
Measurement: 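Luciferase ATP signal per well, normalised to plate mean, duplicate average converted to z-score across plates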
Direction: ATP z-score: higher = more total ATP than typical wells; ATP luminescence: higher = more total ATP
Active means: 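a hit is any knock-down whose absolute ATP z-score is greater than 1.5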
Meaning of the calls: active = hit: ATP up or down; inactive = no clear ATP change

| predicted target | reagent | ATP z-score, duplicate mean | ATP luminescence, replicate 1 (RLU) | ATP luminescence, replicate 2 (RLU) |
| --- | --- | --- | --- | --- |
| ATPsynC | 1 | -2.48 (active) | 4.08e5 | 4.89e5 |
| ATPsynC | 2 | -1.85 (active) | 3.48e5 | 3.13e5 |
| CG4907 | 1 | 0.489 | 3.09e5 | 8.45e5 |
| CG4907 | 2 | 0.855 | 4.70e5 | 5.78e5 |
| CG4480 | 1 | -0.502 | 6.73e5 | 6.73e5 |
| COX6AL2 | 1 | 0.102 | 9.46e5 | 8.73e5 |
| COX6AL2 | 2 | -0.309 | 4.34e5 | 4.30e5 |
| hoe2 | 1 | 0.198 | 7.35e5 | 7.59e5 |
| hoe2 | 2 | 1.13 | 4.79e5 | 5.74e5 |
| CG13101 | 1 | 0.414 | 4.27e5 | 5.95e5 |
| CG13101 | 2 | -0.169 | 4.72e5 | 4.13e5 |
| Fad2 | 1 | -1.34 | 7.77e5 | 6.67e5 |
| Fad2 | 2 | -0.448 | 8.34e5 | 7.54e5 |
| nebu | 1 | -0.217 | 7.63e5 | 6.51e5 |
| nebu | 2 | 0.282 | 9.24e5 | 9.41e5 |
| CG13384 | 1 | 0.0698 | 4.41e5 | 5.30e5 |
| Tsp42Ed | 1 | 0.253 | 6.27e5 | 6.58e5 |
| Tsp42Ed | 2 | -1.58 (active) | 3.39e5 | 3.78e5 |
| m | 1 | -1.57 (active) | 4.15e5 | 6.91e5 |
| m | 2 | 0.427 | 7.72e5 | 9.67e5 |
| Myd88 | 1 | 0.767 | 8.83e5 | 7.41e5 |
| Myd88 | 2 | 1.95 (active) | 5.99e5 | 9.21e5 |
| CG34234 + Dh44-R2 | 1 | 0.897 | 8.65e5 | 7.87e5 |
| chk | 1 | 0.335 | 7.09e5 | 8.27e5 |
| MFS14 | 1 | -1.68 (active) | 4.29e5 | 4.46e5 |
| MFS14 | 2 | 0.825 | 4.86e5 | 5.58e5 |
| Psn | 1 | -0.646 | 8.31e5 | 7.92e5 |
| Tsp29Fb | 1 | -0.128 | 7.68e5 | 6.58e5 |
| Tsp29Fb | 2 | 0.45 | 9.40e5 | 8.72e5 |
| CG13160 | 1 | 1.11 | 7.34e5 | 7.06e5 |
| Inx3 | 1 | 0.676 | 7.47e5 | 8.03e5 |
| Inx3 | 2 | 0.659 | 9.68e5 | 8.96e5 |
| spi | 1 | -0.0476 | 6.99e5 | 7.42e5 |
| spi | 2 | -0.0999 | 8.71e5 | 7.56e5 |
| BI-1 | 1 | -0.614 | 6.11e5 | 7.21e5 |
| BI-1 | 2 | -1.39 | 3.91e5 | 3.32e5 |
| prt | 1 | -0.0797 | 3.29e5 | 6.68e5 |
| prt | 2 | -1.41 | 3.70e5 | 3.50e5 |
| Alg9 | 1 | -0.0303 | 7.29e5 | 6.76e5 |
| Alg9 | 2 | 0.475 | 4.23e5 | 5.42e5 |
| CG9855 | 1 | 1 | 8.15e5 | 8.62e5 |
| CG7573 | 1 | -0.327 | 8.55e5 | 8.51e5 |
| l(2)03659 | 1 | 0.538 | 6.03e5 | 7.33e5 |
| l(2)03659 | 2 | 0.0904 | 6.82e5 | 8.27e5 |
| CG33233 | 1 | -0.109 | 5.37e5 | 6.82e5 |
| CG33233 | 2 | -0.61 | 3.84e5 | 4.65e5 |
